According to the supplement of paper PMC10849652:
Some of the results follow. Residues, ends and D or L forms follow the SMILES beside them. *: point of attachment. Cbz = O=C(OCc1ccccc1)*

The chains behind the UniProt entries cited, without tags or fusion partners. Where a name states a change or a piece, a line headed by the entry shows the natural chain unless it says otherwise.
UniProt Q9UNL4, whole entry, looked up: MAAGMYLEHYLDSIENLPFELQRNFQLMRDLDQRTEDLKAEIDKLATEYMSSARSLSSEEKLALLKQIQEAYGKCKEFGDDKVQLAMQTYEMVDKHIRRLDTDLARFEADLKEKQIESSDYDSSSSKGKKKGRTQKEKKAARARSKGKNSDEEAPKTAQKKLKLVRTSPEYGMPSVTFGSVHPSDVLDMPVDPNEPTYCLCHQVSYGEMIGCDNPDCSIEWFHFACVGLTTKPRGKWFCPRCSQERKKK
UniProt Q13478: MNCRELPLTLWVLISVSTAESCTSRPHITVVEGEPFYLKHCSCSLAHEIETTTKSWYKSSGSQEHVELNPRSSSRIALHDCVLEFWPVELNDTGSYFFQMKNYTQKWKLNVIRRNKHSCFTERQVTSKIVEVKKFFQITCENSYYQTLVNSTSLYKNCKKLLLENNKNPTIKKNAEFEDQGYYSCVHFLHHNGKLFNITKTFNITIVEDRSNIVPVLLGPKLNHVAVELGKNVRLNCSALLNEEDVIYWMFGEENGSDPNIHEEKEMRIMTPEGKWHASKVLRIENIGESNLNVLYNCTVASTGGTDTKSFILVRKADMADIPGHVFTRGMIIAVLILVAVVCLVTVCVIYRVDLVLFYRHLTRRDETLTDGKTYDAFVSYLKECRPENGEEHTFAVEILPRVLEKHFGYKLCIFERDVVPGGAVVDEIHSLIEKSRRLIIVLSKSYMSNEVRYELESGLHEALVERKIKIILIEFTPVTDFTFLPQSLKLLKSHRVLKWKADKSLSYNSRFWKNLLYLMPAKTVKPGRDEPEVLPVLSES
UniProt P28290: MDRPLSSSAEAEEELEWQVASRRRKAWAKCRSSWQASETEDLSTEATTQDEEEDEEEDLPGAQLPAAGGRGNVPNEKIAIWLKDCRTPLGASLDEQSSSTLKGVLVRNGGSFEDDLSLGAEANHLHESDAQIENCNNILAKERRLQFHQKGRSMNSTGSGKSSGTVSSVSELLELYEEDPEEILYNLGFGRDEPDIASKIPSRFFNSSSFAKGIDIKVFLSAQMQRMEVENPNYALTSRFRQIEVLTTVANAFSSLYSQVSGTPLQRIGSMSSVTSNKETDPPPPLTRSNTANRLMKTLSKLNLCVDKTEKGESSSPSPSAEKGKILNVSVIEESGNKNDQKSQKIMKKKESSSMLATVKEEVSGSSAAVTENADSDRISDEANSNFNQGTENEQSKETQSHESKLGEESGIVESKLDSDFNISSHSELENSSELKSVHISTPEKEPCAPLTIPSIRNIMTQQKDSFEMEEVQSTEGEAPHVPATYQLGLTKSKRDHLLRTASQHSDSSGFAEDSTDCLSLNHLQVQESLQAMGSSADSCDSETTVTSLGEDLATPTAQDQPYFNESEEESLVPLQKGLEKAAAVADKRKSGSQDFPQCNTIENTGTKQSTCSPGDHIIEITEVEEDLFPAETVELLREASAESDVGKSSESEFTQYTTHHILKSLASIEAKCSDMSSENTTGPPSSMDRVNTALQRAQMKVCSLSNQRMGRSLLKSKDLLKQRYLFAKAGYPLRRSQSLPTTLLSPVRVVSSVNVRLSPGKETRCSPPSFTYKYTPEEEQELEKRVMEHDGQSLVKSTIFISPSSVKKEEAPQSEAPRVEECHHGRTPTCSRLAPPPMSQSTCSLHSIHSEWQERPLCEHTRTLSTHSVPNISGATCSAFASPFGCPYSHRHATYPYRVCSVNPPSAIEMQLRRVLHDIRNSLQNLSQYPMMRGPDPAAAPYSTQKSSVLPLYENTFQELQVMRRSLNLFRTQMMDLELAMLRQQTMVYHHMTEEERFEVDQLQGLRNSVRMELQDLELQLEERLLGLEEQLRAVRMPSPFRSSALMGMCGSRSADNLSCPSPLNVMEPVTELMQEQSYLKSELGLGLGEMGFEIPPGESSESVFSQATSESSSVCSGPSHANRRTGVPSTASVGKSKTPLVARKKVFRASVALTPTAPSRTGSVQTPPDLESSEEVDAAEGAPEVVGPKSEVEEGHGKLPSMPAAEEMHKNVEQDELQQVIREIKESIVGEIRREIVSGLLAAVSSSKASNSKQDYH
UniProt Q96CB8, whole entry, looked up: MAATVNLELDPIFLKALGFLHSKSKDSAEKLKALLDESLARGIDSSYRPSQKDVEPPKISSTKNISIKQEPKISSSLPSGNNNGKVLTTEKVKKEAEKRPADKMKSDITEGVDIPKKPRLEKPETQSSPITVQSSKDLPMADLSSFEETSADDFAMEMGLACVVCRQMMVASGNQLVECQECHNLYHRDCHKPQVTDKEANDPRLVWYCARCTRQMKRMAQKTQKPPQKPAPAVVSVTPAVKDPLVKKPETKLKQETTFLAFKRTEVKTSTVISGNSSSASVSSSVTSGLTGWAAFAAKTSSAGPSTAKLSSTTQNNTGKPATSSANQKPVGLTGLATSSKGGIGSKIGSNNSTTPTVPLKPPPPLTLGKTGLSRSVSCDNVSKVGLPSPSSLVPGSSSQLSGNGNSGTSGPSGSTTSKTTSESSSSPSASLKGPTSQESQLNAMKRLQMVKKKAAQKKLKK
UniProt P17181: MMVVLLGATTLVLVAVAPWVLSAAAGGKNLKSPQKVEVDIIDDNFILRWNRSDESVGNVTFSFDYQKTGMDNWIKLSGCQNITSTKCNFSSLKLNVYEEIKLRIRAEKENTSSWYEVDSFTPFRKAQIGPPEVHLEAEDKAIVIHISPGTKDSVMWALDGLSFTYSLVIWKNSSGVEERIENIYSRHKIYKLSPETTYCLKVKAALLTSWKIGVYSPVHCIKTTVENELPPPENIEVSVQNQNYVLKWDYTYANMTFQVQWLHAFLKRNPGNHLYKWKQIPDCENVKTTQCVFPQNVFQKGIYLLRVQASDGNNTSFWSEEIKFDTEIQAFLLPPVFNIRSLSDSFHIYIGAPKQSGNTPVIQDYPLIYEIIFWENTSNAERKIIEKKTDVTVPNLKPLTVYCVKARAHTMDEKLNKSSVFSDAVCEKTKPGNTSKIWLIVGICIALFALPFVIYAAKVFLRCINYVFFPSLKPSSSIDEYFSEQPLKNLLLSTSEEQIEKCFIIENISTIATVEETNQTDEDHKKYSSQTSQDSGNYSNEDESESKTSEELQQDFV
UniProt P17936, whole entry, looked up: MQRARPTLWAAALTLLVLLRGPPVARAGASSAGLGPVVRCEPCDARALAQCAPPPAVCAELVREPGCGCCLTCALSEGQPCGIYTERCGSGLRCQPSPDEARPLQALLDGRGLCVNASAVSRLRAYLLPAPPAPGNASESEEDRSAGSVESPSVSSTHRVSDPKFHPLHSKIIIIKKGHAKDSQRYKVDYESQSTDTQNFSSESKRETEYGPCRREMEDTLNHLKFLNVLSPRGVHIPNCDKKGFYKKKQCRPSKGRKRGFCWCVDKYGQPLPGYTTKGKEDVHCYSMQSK
UniProt Q5VWK5: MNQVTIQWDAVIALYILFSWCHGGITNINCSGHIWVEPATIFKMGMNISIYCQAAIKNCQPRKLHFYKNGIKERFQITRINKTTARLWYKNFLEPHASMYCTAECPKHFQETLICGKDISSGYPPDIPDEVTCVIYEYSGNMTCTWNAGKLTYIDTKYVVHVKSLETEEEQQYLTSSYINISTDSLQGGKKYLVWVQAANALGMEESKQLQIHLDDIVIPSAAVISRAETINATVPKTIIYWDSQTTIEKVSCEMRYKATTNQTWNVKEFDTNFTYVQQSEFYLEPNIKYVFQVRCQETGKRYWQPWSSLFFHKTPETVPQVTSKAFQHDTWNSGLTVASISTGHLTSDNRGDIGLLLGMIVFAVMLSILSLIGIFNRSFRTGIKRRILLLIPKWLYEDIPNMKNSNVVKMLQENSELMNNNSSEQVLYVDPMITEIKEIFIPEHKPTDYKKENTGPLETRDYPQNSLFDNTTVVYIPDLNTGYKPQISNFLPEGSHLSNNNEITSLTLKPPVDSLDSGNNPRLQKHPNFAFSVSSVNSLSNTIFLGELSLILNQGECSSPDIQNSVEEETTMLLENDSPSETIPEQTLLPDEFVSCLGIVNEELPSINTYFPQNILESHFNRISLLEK
UniProt Q9NQS7, whole entry, looked up: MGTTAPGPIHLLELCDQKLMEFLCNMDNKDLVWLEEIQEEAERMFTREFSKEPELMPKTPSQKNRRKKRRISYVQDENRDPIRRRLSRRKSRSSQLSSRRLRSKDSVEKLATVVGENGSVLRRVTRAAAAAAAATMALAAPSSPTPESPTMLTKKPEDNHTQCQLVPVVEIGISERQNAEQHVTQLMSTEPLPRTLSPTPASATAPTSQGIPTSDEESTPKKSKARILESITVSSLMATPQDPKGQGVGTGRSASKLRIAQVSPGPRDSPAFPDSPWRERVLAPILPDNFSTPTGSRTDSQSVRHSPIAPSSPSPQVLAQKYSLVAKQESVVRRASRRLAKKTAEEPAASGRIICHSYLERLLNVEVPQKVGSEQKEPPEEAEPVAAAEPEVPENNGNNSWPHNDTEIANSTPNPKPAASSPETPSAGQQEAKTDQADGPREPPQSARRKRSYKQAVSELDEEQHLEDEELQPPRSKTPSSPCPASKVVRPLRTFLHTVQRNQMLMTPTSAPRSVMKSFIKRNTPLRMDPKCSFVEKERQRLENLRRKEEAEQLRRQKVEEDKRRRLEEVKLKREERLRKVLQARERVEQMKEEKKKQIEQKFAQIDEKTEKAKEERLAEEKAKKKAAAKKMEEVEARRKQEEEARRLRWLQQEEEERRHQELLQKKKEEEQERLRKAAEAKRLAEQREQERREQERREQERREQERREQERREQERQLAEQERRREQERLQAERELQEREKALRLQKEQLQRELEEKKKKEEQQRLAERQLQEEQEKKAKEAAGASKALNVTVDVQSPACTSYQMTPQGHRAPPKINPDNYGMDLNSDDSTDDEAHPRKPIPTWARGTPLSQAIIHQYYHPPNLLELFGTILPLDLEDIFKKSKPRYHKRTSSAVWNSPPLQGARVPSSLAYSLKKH
UniProt P24592: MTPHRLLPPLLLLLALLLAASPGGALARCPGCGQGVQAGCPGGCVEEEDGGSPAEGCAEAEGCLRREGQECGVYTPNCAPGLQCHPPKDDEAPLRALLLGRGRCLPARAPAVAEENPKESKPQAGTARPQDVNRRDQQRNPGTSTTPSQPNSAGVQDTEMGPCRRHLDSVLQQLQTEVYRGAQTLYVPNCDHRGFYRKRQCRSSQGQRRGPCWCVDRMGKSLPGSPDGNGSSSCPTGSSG
UniProt Q12906, whole entry, looked up: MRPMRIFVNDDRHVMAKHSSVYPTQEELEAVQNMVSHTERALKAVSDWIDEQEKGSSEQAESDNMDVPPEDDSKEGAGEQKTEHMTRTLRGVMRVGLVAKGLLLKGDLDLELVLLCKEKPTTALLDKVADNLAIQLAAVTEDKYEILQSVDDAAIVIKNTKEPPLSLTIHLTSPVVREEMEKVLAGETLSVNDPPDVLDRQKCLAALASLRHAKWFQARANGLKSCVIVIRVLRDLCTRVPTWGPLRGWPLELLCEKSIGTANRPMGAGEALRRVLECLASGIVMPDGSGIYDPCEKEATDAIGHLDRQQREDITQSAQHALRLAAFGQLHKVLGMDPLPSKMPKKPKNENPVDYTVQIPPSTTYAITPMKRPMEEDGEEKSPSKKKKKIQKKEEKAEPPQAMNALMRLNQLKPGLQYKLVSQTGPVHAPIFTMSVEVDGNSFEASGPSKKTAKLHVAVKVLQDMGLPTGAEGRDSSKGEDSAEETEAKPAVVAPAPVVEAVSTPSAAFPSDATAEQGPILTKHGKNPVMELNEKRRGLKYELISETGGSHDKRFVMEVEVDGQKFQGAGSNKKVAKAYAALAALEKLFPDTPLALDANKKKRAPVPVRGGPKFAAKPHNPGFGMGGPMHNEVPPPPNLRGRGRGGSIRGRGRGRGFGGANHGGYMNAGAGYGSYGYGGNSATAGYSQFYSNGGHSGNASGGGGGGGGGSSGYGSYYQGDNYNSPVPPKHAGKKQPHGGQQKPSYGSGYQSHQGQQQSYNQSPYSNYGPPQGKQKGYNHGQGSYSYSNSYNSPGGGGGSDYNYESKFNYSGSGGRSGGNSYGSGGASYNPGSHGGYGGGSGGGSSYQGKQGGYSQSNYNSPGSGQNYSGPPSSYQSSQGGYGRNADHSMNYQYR
UniProt P22304: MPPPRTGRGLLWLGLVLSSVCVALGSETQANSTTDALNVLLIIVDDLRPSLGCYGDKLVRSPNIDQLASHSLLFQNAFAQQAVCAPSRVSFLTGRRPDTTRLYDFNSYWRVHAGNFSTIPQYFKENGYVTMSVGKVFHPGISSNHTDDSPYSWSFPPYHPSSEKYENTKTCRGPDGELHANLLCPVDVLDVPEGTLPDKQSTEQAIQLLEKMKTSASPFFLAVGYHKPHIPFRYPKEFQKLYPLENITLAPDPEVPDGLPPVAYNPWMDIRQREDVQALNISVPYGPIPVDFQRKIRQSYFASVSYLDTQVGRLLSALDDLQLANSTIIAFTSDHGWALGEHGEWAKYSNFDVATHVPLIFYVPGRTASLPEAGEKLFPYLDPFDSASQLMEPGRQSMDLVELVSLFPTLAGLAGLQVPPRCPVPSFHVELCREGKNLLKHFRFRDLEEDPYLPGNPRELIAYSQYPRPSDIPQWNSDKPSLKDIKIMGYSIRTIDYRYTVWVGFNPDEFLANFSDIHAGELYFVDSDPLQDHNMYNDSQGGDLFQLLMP

Assays:
Experiment in all cases: log2 fold change, soluble protein after heating vs DMSO (PISA); higher = thermal stabilisation; K562 cells, 10 uM, 30 min; active = over 0.2 and 3.5 SD of the protein, either way, in both replicates (recomputed)
erlotinib = compound: C#Cc1cccc(Nc2ncnc3cc(OCCOC)c(OCCOC)cc23)c1 [erlotinib]
How it was run: (§1)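 K562 cells (2×10^6 cells/mL) were treated with 10 μM compound for 30 min, and aliquots were heated for 3 min over 48°C-58°C. Pooled aliquots were extracted in PBS with 0.5% NP-40 at 4°C, and the supernatant after 21,000xg for 90 min was measured by TMTpro 16plex LC-MS/MS with channel sums equalised. Reported thermal stability, relative to control samples and from duplicates, is a log2 fold change.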

[1] = compound: C1=CC(=CC=C1C2=NC3=C(N2)C=C(C=C3)C(=O)N)OC4=CC=C(C=C4)Cl
How it was run: as §1

[2] = compound: C1=CC2=NC=CN=C2C=C1/C=C/3\C(=O)NC(=O)S3
How it was run: as §1

ibrutinib = compound: C=CC(=O)N1CCC[C@@H](n2nc(-c3ccc(Oc4ccccc4)cc3)c3c(N)ncnc32)C1 [ibrutinib]
How it was run: as §1

[3] = compound: CC(C)C1=C2N=C(C=C(N2N=C1)NCC3=CC=CC=C3)NCCCCCCN
How it was run: as §1

[4] = compound: C/C(=N\NC(=O)C1=CC(=CC=C1)S(=O)(=O)N2CCOCC2)/C3=C(C=CC(=C3)Cl)O
How it was run: as §1

[5] = compound: C1=CC2=C(C=CC(=C2)/C=C\3/C(=O)NC(=NCC4=CC=CS4)S3)N=C1
How it was run: as §1

[6] = compound: C1=CC=C(C=C1)C2=NC(=C(N2)C3=CC=NC=C3)C4=CC(=C(C=C4)Cl)O
How it was run: as §1

[7] = compound: C1=CC=C2C(=C1)C3=NNC4=CC=CC(=C43)C2=O
How it was run: as §1

[8] = compound: C1CCN(C1)C(=O)NC2=CC=CC(=C2)NC3=NC=C(C(=N3)NCCC4=CN=CN4)Br
How it was run: as §1

[9] = compound: C1CN(CCC1(CC2=CC=C(C=C2)Cl)N)C3=NC=NC4=C3C=CN4
How it was run: as §1

[10] = compound: CC(=O)c1cnc2ccc(-c3cc(Cl)c(O)c(Cl)c3)nc2c1N[C@H]1CC[C@H](CN(C)C)CC1
How it was run: as §1

ralimetinib = compound: CC(C)(C)Cn1c(N)nc2ccc(-c3[nH]c(C(C)(C)C)nc3-c3ccc(F)cc3)nc21 [ralimetinib]
How it was run: as §1

[11] = compound: CC(C)C[C@@H](C=O)NC(=O)[C@H](CC(C)C)NC(=O)[C@H](CC(C)C)NC(=O)OCc1ccccc1
How it was run: as §1

[12] = compound: CC1=C(C2=C(C=C1)C(=O)C3=CC=CC=C3N2CCCN)C
How it was run: as §1

[13] = compound: C1=CC(=C(C=C1Cl)C2=NC3=NC=CN=C3C(=N2)NC4=CC=NC=C4)F
How it was run: as §1

[14] = compound: CC(C)(O)CC(=O)NCCn1ccc2ncnc(Nc3ccc(Oc4cccc(C(F)(F)F)c4)c(Cl)c3)c21
How it was run: as §1

[15] = compound: CC1=C(C(CC(=O)N1)C2=CC=C(C=C2)C(F)(F)F)C(=O)NC3=C(C=C4C(=C3)C=NN4)F
How it was run: as §1

IRAK-1-4 Inhibitor I = compound: C1COCCN1CCN2C3=CC=CC=C3N=C2NC(=O)C4=CC(=CC=C4)[N+](=O)[O-] [IRAK-1-4 Inhibitor I]
How it was run: as §1

pinometostat = compound: CC(C)N(C[C@H]1O[C@@H](n2cnc3c(N)ncnc32)[C@H](O)[C@@H]1O)[C@H]1C[C@@H](CCc2nc3cc(C(C)(C)C)ccc3[nH]2)C1 [pinometostat]
How it was run: as §1

Measured: log2 fold change

INHBE (UniProt P58166)
inactive: erlotinib -0.102 | [1] -0.125 | [2] 0.148 | ibrutinib -0.004 | [3] 0.147

IMPA2 (UniProt O14732)
inactive: erlotinib 0.091 | [4] 0.075 | [1] -0.018 | [5] 0.168 | [2] -0.04 | [6] -0.005 | [7] -0.116 | [8] -0.032 | [9] -0.39 | ibrutinib 0.1 | [10] -0.041 | ralimetinib -0.03 | [3] -0.034 | [11] -0.001 | [12] 0.267

IKZF4 (UniProt Q9H2S9)
inactive: erlotinib 0.075 | [4] 0.083 | [13] 0.102 | [1] 0.013 | [5] 0.022 | [2] 0.337 | [6] -0.215 | [7] -0.105 | ibrutinib -0.007 | [10] -0.166 | ralimetinib -0.178 | [14] -0.311 | [3] -0.395 | [11] 0.195 | [15] -0.002

IFNGR1 (UniProt P15260)
inactive: erlotinib 0.256 | [4] 0.003 | [13] 0.156 | [1] -0.208 | [5] -0.033 | [2] -0.033 | [6] -0.066 | [7] -0.035 | [8] 0.048 | [9] 0.247 | ibrutinib 0.224 | [10] -0.086 | ralimetinib -0.017 | [14] -0.067 | [3] 0.199 | [11] 0.14 | [12] -0.093

INTS1 (UniProt Q8N201)
inactive: erlotinib 0.066 | [13] -0.11 | [1] 0.065 | [6] 0.118 | [8] -0.041 | [9] 0.015 | ralimetinib -0.185 | [14] 0.095 | [3] -0.058 | [11] -0.113 | [15] 0.007 | [12] 0.072

IL10RB (UniProt Q08334)
inactive: erlotinib 0.05 | [4] -0.089 | [13] -0.106 | [1] 0.053 | [5] 0 | [2] -0.03 | [7] 0.029 | [8] 0.037 | [9] 0.075 | IRAK-1-4 Inhibitor I 0.027 | ibrutinib 0.079 | [10] 0.09 | [14] -0.09 | [3] 0.063 | pinometostat 0.04 | [12] -0.089

ING4 (UniProt Q9UNL4)
inactive: erlotinib -0.133 | [4] 0.08 | [13] -0.204 | [1] 0.307 | [5] 0.058 | [7] -0.033 | [8] -0.237 | [9] 0.272 | [10] 0.173 | [14] 0.195 | [3] -0.034 | [12] 0.088

ITM2C (UniProt Q9NQX7)
inactive: erlotinib -0.078 | [4] -0.019 | [13] 0.013 | [1] -0.297 | [5] -0.023 | [2] 0.062 | [6] -0.029 | [7] 0.052 | ibrutinib -0.069 | [10] -0.07 | ralimetinib -0.063 | [14] -0.186 | [11] 0.036
active: [3] -0.445

IGHA1 (UniProt P01876)
inactive: erlotinib 0.536 | [4] 0.013 | [13] 0 | [1] 0.321 | [5] -0.1 | [2] -0.388 | [6] -0.547 | [7] -0.095 | [8] 0.015 | [9] -0.143 | ibrutinib -0.036 | [10] -0.192 | ralimetinib -0.026 | [14] 0.151 | [3] -0.74 | [11] -0.079 | [15] -0.411 | [12] 0.189

IL18R1 (UniProt Q13478)
inactive: erlotinib -0.4 | [1] -0.033 | [2] -0.114 | IRAK-1-4 Inhibitor I -0.101 | ibrutinib 0.466 | [3] 0.125 | pinometostat -0.52 | [15] -0.079

ITPRID2 (UniProt P28290)
active: [3] -0.686
inactive: erlotinib 0.022 | [13] -0.133 | [1] -0.268 | [6] -0.213 | IRAK-1-4 Inhibitor I 0.004 | ralimetinib -0.025 | [14] 0.238 | [11] 0.063 | pinometostat 0.03

INTS12 (UniProt Q96CB8)
inactive: [8] -0.058 | [9] -0.229 | [12] 0.396

IFNAR1 (UniProt P17181)
inactive: [13] -0.039 | [2] -0.124 | [6] -0.038 | [8] 0.013 | [9] 0.009 | IRAK-1-4 Inhibitor I 0.083 | ibrutinib -0.303 | ralimetinib -0.013 | [14] 0.027 | [11] -0.012 | pinometostat -0.097 | [15] -0.019 | [12] 0.005

IL1RAP isoform 5 (UniProt Q9NPH3)
inactive: [4] -0.061 | [13] 0.278 | [5] 0.359 | [2] -0.102 | [6] -0.325 | [7] 0.152 | [8] 0.165 | [9] -0.115 | ibrutinib 0.049 | [10] -0.046 | ralimetinib -0.1 | [14] 0 | [11] 0.093 | [12] -0.197

IFT20 isoform 2 (UniProt Q8IY31)
inactive: erlotinib 0.024 | [1] 0.027 | [6] 0.029 | ralimetinib -0.057 | [3] -0.056 | [11] -0.247 | [15] 0.172

IGF2 isoform 3 (UniProt P01344)
inactive: erlotinib -0.098 | [1] 0.028 | IRAK-1-4 Inhibitor I 0.066 | [3] -0.104 | pinometostat -0.107

Eight consecutive records out of the list so far:
IL10RB (UniProt Q08334)
inactive: erlotinib 0.05 | [4] -0.089 | [13] -0.106 | [1] 0.053 | [5] 0 | [2] -0.03 | [7] 0.029 | [8] 0.037 | [9] 0.075 | IRAK-1-4 Inhibitor I 0.027 | ibrutinib 0.079 | [10] 0.09 | [14] -0.09 | [3] 0.063 | pinometostat 0.04 | [12] -0.089

ING4 (UniProt Q9UNL4)
inactive: erlotinib -0.133 | [4] 0.08 | [13] -0.204 | [1] 0.307 | [5] 0.058 | [7] -0.033 | [8] -0.237 | [9] 0.272 | [10] 0.173 | [14] 0.195 | [3] -0.034 | [12] 0.088

ITM2C (UniProt Q9NQX7)
inactive: erlotinib -0.078 | [4] -0.019 | [13] 0.013 | [1] -0.297 | [5] -0.023 | [2] 0.062 | [6] -0.029 | [7] 0.052 | ibrutinib -0.069 | [10] -0.07 | ralimetinib -0.063 | [14] -0.186 | [11] 0.036
active: [3] -0.445

IGHA1 (UniProt P01876)
inactive: erlotinib 0.536 | [4] 0.013 | [13] 0 | [1] 0.321 | [5] -0.1 | [2] -0.388 | [6] -0.547 | [7] -0.095 | [8] 0.015 | [9] -0.143 | ibrutinib -0.036 | [10] -0.192 | ralimetinib -0.026 | [14] 0.151 | [3] -0.74 | [11] -0.079 | [15] -0.411 | [12] 0.189

IL18R1 (UniProt Q13478)
inactive: erlotinib -0.4 | [1] -0.033 | [2] -0.114 | IRAK-1-4 Inhibitor I -0.101 | ibrutinib 0.466 | [3] 0.125 | pinometostat -0.52 | [15] -0.079

ITPRID2 (UniProt P28290)
active: [3] -0.686
inactive: erlotinib 0.022 | [13] -0.133 | [1] -0.268 | [6] -0.213 | IRAK-1-4 Inhibitor I 0.004 | ralimetinib -0.025 | [14] 0.238 | [11] 0.063 | pinometostat 0.03

INTS12 (UniProt Q96CB8)
inactive: [8] -0.058 | [9] -0.229 | [12] 0.396

IFNAR1 (UniProt P17181)
inactive: [13] -0.039 | [2] -0.124 | [6] -0.038 | [8] 0.013 | [9] 0.009 | IRAK-1-4 Inhibitor I 0.083 | ibrutinib -0.303 | ralimetinib -0.013 | [14] 0.027 | [11] -0.012 | pinometostat -0.097 | [15] -0.019 | [12] 0.005

Next part:

IGFBP3 isoform 2 (UniProt P17936)
inactive: [4] -0.18 | [13] -0.094 | [5] 0.049 | [7] -0.172 | [8] 0.032 | [9] -0.057 | IRAK-1-4 Inhibitor I 0.115 | [10] 0.097 | [14] 0.196 | pinometostat -0.004 | [12] -0.095

IL23R (UniProt Q5VWK5)
inactive: [4] -0.165 | [5] 0.385 | [2] -0.139 | [7] -0.051 | [8] 0.226 | [9] -0.139 | ibrutinib -0.243 | [10] -0.172 | [12] 0.19

IQGAP3 (UniProt Q86VI3)
inactive: [6] -0.14 | ralimetinib 0.085 | [11] 0.165

IGLC3 (UniProt P0DOY3)
inactive: [15] -0.3

INCENP (UniProt Q9NQS7)
inactive: [6] -0.081 | IRAK-1-4 Inhibitor I -0.447 | ralimetinib 0.171 | [11] 0.02 | pinometostat -0.108

IGFBP6 (UniProt P24592)
inactive: [4] -0.215 | [5] 0.057 | [6] 0.131 | [7] -0.19 | [10] -0.02 | ralimetinib -0.049 | [11] 0.097

IMP4 (UniProt Q96G21)
inactive: [4] -0.25 | [5] -0.015 | [6] -0.006 | [7] -0.139 | [10] -0.006 | ralimetinib 0.084 | [11] 0.155

IDUA (UniProt P35475)
inactive: [13] -0.137 | [14] 0.075

IL2RG (UniProt P31785)
inactive: [13] 0.014 | [8] -0.051 | [9] 0.14 | [14] -0.076 | [15] -0.156 | [12] -0.068

IQSEC2 (UniProt Q5JU85)
inactive: [15] 0.031

IGKV3D-11, A0A0A0MRZ8
inactive: [15] -0.001

IKZF1 (UniProt R9R4D9)
inactive: [8] -0.055 | [9] -0.13 | IRAK-1-4 Inhibitor I -0.1 | pinometostat -0.103 | [12] 0.385

ILF3 (UniProt Q12906)
inactive: [13] -0.083 | [2] 0.128 | IRAK-1-4 Inhibitor I -0.058 | ibrutinib 0.036 | [14] 0.191 | pinometostat 0.029

IDS (UniProt P22304)
inactive: [6] -0.187 | ralimetinib -0.158 | [11] 0.039

IL17RA (UniProt Q96F46)
inactive: [4] -0.097 | [5] 0.051 | [7] -0.015 | [8] -0.03 | [9] 0.103 | [10] -0.052 | [12] 0.062

IGSF1 isoform 4 (UniProt Q8N6C5)
inactive: [4] 0.188 | [5] 0.421 | [7] 0.041 | [10] -0.164
